Data as given in PubChem BioAssay AID328 (DTP/NCI, 2004).
The list is a part of this screen's results and no random one: its compounds were picked by chemical class. Other doses and runs of a compound may be missing. T/C gives the treated animals as a percentage of the vehicle group. Some entries give survivors of the animals treated and no T/C: the source files T/C as zero there, which appears to mark a toxic dose or a test without result, not a measured value. Some doses without a T/C left all or most animals alive at the check, yet need not have been tolerated: survival well below the control is almost never listed, so the zero probably covers shortened survival too. Survivors were counted at the toxicity check, usually on the fifth day, unless a day is given; later deaths do not show. Schedule codes are those of the source, read here as Q, the interval in days (D) or hours (H), X, the number of doses. Where survival is the endpoint, this PubChem deposit counts one and a half times the control or more as active, and values a quarter to a half above the control carry no call in these data; other NCI protocols may use other cut-offs. Additions like (4×) say how often a value occurs here. Some T/C values carry the count of animals alive at the toxicity check (mostly the fifth day); where neither a count nor a note follows, no animal had died by that day. Some doses were run more than once; the results are listed from low to high.

System: BDF1 mice, P388 leukemia ip, median survival T/C
Experiment: NCI In Vivo Anticancer Drug Screen. Data for tumor model P388 Leukemia (intraperitoneal) in B6D2F1 (BDF1) mice
Conditions: T/C endpoint: median survival time, higher T/C = longer survival
Outline: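 Mice carrying the transplantable tumour receive compound or vehicle. Survival is followed in each arm, and the treated measure is divided by the vehicle measure.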

[1] = dose: 100.0 mg/kg/injection, schedule: Q01DX009 (ip), vehicle: saline with Tween-80
[2] = dose: 200.0 mg/kg/injection, schedule: Q01DX009 (ip), vehicle: saline with Tween-80
[3] = dose: 25.0 mg/kg/injection, schedule: Q01DX009 (ip), vehicle: Klucel (hydroxypropylcellulose) (HPC)
[4] = dose: 50.0 mg/kg/injection, schedule: Q01DX009 (ip), vehicle: Klucel (hydroxypropylcellulose) (HPC)
[5] = dose: 100.0 mg/kg/injection, schedule: Q01DX009 (ip), vehicle: Klucel (hydroxypropylcellulose) (HPC)
[6] = dose: 6.0 mg/kg/injection, schedule: Q01DX009 (ip), vehicle: Klucel (hydroxypropylcellulose) (HPC)
[7] = dose: 12.5 mg/kg/injection, schedule: Q01DX009 (ip), vehicle: saline with Tween-80
[8] = dose: 25.0 mg/kg/injection, schedule: Q01DX009 (ip), vehicle: saline with Tween-80
[9] = dose: 50.0 mg/kg/injection, schedule: Q01DX009 (ip), vehicle: saline with Tween-80
[10] = dose: 4.0 mg/kg/injection, schedule: Q01DX010 (ip), vehicle: saline

SMILES: Nc1ccc(N(CCCl)CCCl)cc1
- T/C (dose: 0.05 mg/kg/injection, schedule: Q01DX009 (ip), vehicle: saline): 91 % of control [4 of 6 alive]
- T/C (dose: 0.07 mg/kg/injection, schedule: Q01DX009 (ip), vehicle: saline): 102 % of control
- T/C (dose: 0.11 mg/kg/injection, schedule: Q01DX009 (ip), vehicle: saline): 117 % of control
- T/C (dose: 0.16 mg/kg/injection, schedule: Q01DX009 (ip), vehicle: saline): 97 % of control
- T/C (dose: 0.32 mg/kg/injection, schedule: Q01DX009 (ip), vehicle: saline): 135 % of control

SMILES: CN(CCCl)CCCCCCCl
- T/C (dose: 2.5 mg/kg/injection, schedule: Q01DX009 (ip), vehicle: saline): 150 % of control
- T/C (dose: 5.0 mg/kg/injection, schedule: Q01DX009 (ip), vehicle: saline): 165 % of control
- T/C (dose: 10.0 mg/kg/injection, schedule: Q01DX009 (ip), vehicle: saline): 217 % of control
- T/C (dose: 20.0 mg/kg/injection, schedule: Q01DX009 (ip), vehicle: saline): 220 % of control

SMILES: CCCC1OP(N)(=O)OCC1CC (stereo not drawn)
- T/C [1]: 96 % of control
- T/C [2]: 88 % of control
- T/C (dose: 400.0 mg/kg/injection, schedule: Q01DX009 (ip), vehicle: saline with Tween-80): 105 % of control

SMILES: ClC1(Cl)SC(Cl)(Cl)C(Cl)(Cl)C1(Cl)Cl
- T/C (dose: 3.12 mg/kg/injection, schedule: Q01DX009 (ip), vehicle: Klucel (hydroxypropylcellulose) (HPC)): 118 % of control
- T/C (dose: 6.25 mg/kg/injection, schedule: Q01DX009 (ip), vehicle: Klucel (hydroxypropylcellulose) (HPC)): 86 % of control [5 of 6 alive]
- T/C (dose: 8.2 mg/kg/injection, schedule: Q01DX009 (ip), vehicle: Klucel (hydroxypropylcellulose) (HPC)): 122 % of control
- T/C (dose: 12.5 mg/kg/injection, schedule: Q01DX009 (ip), vehicle: Klucel (hydroxypropylcellulose) (HPC)): 133 and 145 % of control
- T/C (dose: 18.0 mg/kg/injection, schedule: Q01DX009 (ip), vehicle: Klucel (hydroxypropylcellulose) (HPC)): 127 % of control
- survivor count [3]: 5 of 6
- T/C [4]: 86 % of control
- T/C [5]: 90 % of control

SMILES: O=NN1CCN/C1=N\[N+](=O)[O-]
- T/C [4]: 112 % of control
- T/C (dose: 98.0 mg/kg/injection, schedule: Q01DX009 (ip), vehicle: Klucel (hydroxypropylcellulose) (HPC)): 145 % of control
- T/C [5]: 120 % of control
- T/C (dose: 132.0 mg/kg/injection, schedule: Q01DX009 (ip), vehicle: Klucel (hydroxypropylcellulose) (HPC)): 190 % of control
- T/C (dose: 147.0 mg/kg/injection, schedule: Q01DX009 (ip), vehicle: Klucel (hydroxypropylcellulose) (HPC)): 122 % of control
- T/C (dose: 200.0 mg/kg/injection, schedule: Q01DX009 (ip), vehicle: Klucel (hydroxypropylcellulose) (HPC)): 133 and 175 % of control [5 of 6 alive]
- survivor count (dose: 220.0 mg/kg/injection, schedule: Q01DX009 (ip), vehicle: Klucel (hydroxypropylcellulose) (HPC)): 3 of 6
- survivor count (dose: 300.0 mg/kg/injection, schedule: Q01DX009 (ip), vehicle: Klucel (hydroxypropylcellulose) (HPC)): 1 of 6

SMILES: Cc1nccn1P(=O)(Oc1ccccc1)OC1CC(C)(C)N(O)C(C)(C)C1 (stereo not drawn)
- T/C (dose: 50.0 mg/kg/injection, schedule: Q01DX009 (ip), vehicle: saline + alcohol): 97 % of control
- T/C (dose: 100.0 mg/kg/injection, schedule: Q01DX009 (ip), vehicle: saline + alcohol): 100 % of control
- T/C (dose: 200.0 mg/kg/injection, schedule: Q01DX009 (ip), vehicle: saline + alcohol): 101 % of control

SMILES: O=[N+]([O-])c1cc([N+](=O)[O-])c(/C=C/c2ccccc2)c([N+](=O)[O-])c1
- T/C (dose: 1.5 mg/kg/injection, schedule: Q01DX009 (ip), vehicle: Klucel (hydroxypropylcellulose) (HPC)): 100 % of control
- T/C (dose: 3.0 mg/kg/injection, schedule: Q01DX009 (ip), vehicle: Klucel (hydroxypropylcellulose) (HPC)): 87 % of control
- T/C [6]: 87 % of control
- survivor count [6]: 6 of 6
- T/C (dose: 12.0 mg/kg/injection, schedule: Q01DX009 (ip), vehicle: Klucel (hydroxypropylcellulose) (HPC)): 87 % of control
- T/C [3]: 87 and 89 % of control
- T/C (dose: 25.0 mg/kg/injection, schedule: Q04DX003 (ip), vehicle: Klucel (hydroxypropylcellulose) (HPC)): 95 % of control
- survivor count [4]: 6 of 6
- T/C (dose: 50.0 mg/kg/injection, schedule: Q04DX003 (ip), vehicle: Klucel (hydroxypropylcellulose) (HPC)): 95 % of control
- survivor count [5]: 6 of 6
- survivor count (dose: 100.0 mg/kg/injection, schedule: Q04DX003 (ip), vehicle: Klucel (hydroxypropylcellulose) (HPC)): 6 of 6

SMILES: O=[N+]([O-])c1cccc2nn([N+](=O)[O-])cc12
- T/C (dose: 6.25 mg/kg/injection, schedule: Q01DX009 (ip), vehicle: saline with Tween-80): 115 % of control
- T/C [7]: 119 % of control
- survivor count [8]: 3 of 6
- survivor count [9]: 2 of 6
- survivor count [1]: 0 of 6
- survivor count [2]: 0 of 6

SMILES: O=C(Nc1ccc([N+](=O)[O-])cc1[N+](=O)[O-])Nc1ccc([N+](=O)[O-])cc1[N+](=O)[O-]
- T/C (dose: 6.25 mg/kg/injection, schedule: Q04DX003 (ip), vehicle: saline): 109 % of control
- T/C (dose: 12.5 mg/kg/injection, schedule: Q04DX003 (ip), vehicle: saline): 104 % of control
- T/C (dose: 25.0 mg/kg/injection, schedule: Q04DX003 (ip), vehicle: saline): 95 % of control

SMILES: ClCCN(CCCl)B1SCCCS1
- T/C [7]: 127 % of control
- T/C [8]: 200 % of control
- T/C [9]: 200 % of control
- T/C (dose: 50.0 mg/kg/injection, schedule: Q04DX003 (ip), vehicle: saline with Tween-80): 209 % of control

SMILES: Cc1[nH]c(=O)[nH]c(=O)c1N(CCCl)CCCl
- T/C (dose: 0.5 mg/kg/injection, schedule: Q01DX010 (ip), vehicle: saline): 109 and 158 % of control
- T/C (dose: 1.0 mg/kg/injection, schedule: Q01DX010 (ip), vehicle: saline): 150 and 175 % of control
- T/C (dose: 2.0 mg/kg/injection, schedule: Q01DX010 (ip), vehicle: saline): 129 and 150 % of control
- T/C [10]: 218 % of control
- survivor count [10]: 5 of 6

SMILES: CCc1nc(C)cn1P(=O)(Oc1ccccc1)OC1CC(C)(C)N(O)C(C)(C)C1 (stereo not drawn)
- T/C (dose: 50.0 mg/kg/injection, schedule: Q01DX009 (ip), vehicle: suspension in saline): 100 % of control
- T/C (dose: 100.0 mg/kg/injection, schedule: Q01DX009 (ip), vehicle: suspension in saline): 100 % of control
- T/C (dose: 200.0 mg/kg/injection, schedule: Q01DX009 (ip), vehicle: suspension in saline): 120 % of control

SMILES: CC(=O)OC(SC(OC(C)=O)C(Cl)(Cl)Cl)C(Cl)(Cl)Cl (stereo not drawn)
- T/C (dose: 100.0 mg/kg/injection, schedule: Q04DX003 (ip), vehicle: gum acacia): 120 % of control
- T/C (dose: 133.0 mg/kg/injection, schedule: Q04DX003 (ip), vehicle: gum acacia): 130 % of control [5 of 6 alive]
- T/C (dose: 200.0 mg/kg/injection, schedule: Q04DX003 (ip), vehicle: gum acacia): 140 % of control (2×)
- T/C (dose: 300.0 mg/kg/injection, schedule: Q04DX003 (ip), vehicle: gum acacia): 150 % of control
- T/C (dose: 400.0 mg/kg/injection, schedule: Q04DX003 (ip), vehicle: gum acacia): 135 % of control
